According to publication PMC7819943, “Rice protein-binding microarrays: a tool to detect cis-acting elements near promoter regions in rice”:
The other results are listed elsewhere or left out.

Biological target: T1, OsSMF1 (Oryza sativa, UniProt Q6ZLB0 1-436)
T1 sequence: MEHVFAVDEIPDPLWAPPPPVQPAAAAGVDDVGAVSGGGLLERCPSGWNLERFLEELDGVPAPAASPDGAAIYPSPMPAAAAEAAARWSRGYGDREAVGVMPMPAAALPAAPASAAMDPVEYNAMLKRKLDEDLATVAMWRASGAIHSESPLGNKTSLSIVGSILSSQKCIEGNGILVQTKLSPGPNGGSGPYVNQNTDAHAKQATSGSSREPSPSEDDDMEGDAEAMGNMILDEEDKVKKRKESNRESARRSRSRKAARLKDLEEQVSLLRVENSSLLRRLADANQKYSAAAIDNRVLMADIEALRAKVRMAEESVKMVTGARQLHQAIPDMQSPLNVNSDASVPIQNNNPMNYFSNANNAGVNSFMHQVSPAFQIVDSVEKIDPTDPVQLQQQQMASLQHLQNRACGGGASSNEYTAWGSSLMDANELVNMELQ
Test: protein-binding microarray (RPBM); PBS, 2% BSA, 51.3 ng/ul salmon testes DNA, 50 uM zinc acetate, 200 nM TF, 25 C, 1 h; high values mean tight binding
Conditions: protein: recombinant; tags: N-terminal polyhistidine and DsRed monomer fusion (pET32a); chain copies: 2; label: CyDye5-dUTP incorporated in the synthesized complementary strand; 3' TTTTT single-stranded linker to array surface; dsDNA, one strand shown
In short: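 Using Ni–NTA, transcription factors fused N-terminally to polyhistidine and DsRed were purified after expression in E. coli BL21-CodonPlus. These were incubated at 200 nM with a blocked, double-stranded custom Agilent array for 1 h at 25 °C in a buffer containing 50 µM zinc acetate, and the array was washed. The binding signal is per-feature fluorescence intensity (arbitrary units) on an Axon 4000B scanner.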

Sequence | binding signal
TCTCCGCCGTGCTGATCGCGTGGAGCCGAGGAGAGGAGCGCGGAGTCACCTAGTGCAG | 3920 fluorescence intensity (a.u.)
TTAAACTGTCTACTATACGCGCGCGTGGAACAACCGATGGCGGAGTCACCTAGTGCAG | 3280 fluorescence intensity (a.u.)
GGAAGCAGATCTTGTTGGAAATAATCTTGTCATTTGTGTGCGGAGTCACCTAGTGCAG | 3700 fluorescence intensity (a.u.)
CCCTCGCCGCGCGGCGCCGCCGCCGCCGCGGTGGCCACCACGGAGTCACCTAGTGCAG | 4520 fluorescence intensity (a.u.)
TCGACCGATACTTCGCCGTCGTCGCCGTATATGTCATGTCCGGAGTCACCTAGTGCAG | 3660 fluorescence intensity (a.u.)
AAGGCTATGGTACTTGGGCCAAAACGTGTACAGATGCTCTCGGAGTCACCTAGTGCAG | 3780 fluorescence intensity (a.u.)
GCTAGCCCCACCACGTAGTCAGAAATCATGGGTGTATCTGCGGAGTCACCTAGTGCAG | 5270 fluorescence intensity (a.u.)
TAATACTGCTGGTAATCTGGCACCTTTTGGAAGTAAACTCCGGAGTCACCTAGTGCAG | 3320 fluorescence intensity (a.u.)
CTGGGAGTGGAACGTTGCGTCGATGCACTCGTCAGCGGTCCGGAGTCACCTAGTGCAG | 4670 fluorescence intensity (a.u.)
GAATGGTTGTTGATATGTTAGGATCAGCCACCTGACTTTGCGGAGTCACCTAGTGCAG | 3300 fluorescence intensity (a.u.)
CAACATCCTGACATACACCTCACACACACTCCCCTTCTTGCGGAGTCACCTAGTGCAG | 3160 fluorescence intensity (a.u.)
TGTACACGCGCAGGGCGGCCCTGGCGTTGCTGACGTGGCGCGGAGTCACCTAGTGCAG | 42500 fluorescence intensity (a.u.)
TTATAAGAACAAATCCTGGGCAGTTGTATTGCCACATCAACGGAGTCACCTAGTGCAG | 4220 fluorescence intensity (a.u.)
TGGTCCCACCTGTCATACACACATTACGTCTTAGAGTCCGCGGAGTCACCTAGTGCAG | 4320 fluorescence intensity (a.u.)
AGGCGCGCGCGCGGCCATCGGCGCGACGTAATCAGCGTCCCGGAGTCACCTAGTGCAG | 4280 fluorescence intensity (a.u.)
TTCAAACTGATTGTGACGTGTAACCAATTTCATTTGTCACCGGAGTCACCTAGTGCAG | 18700 fluorescence intensity (a.u.)
CCGGAGCCAGTAGTAGCGTTGAGTCGTTGTCGCGAGATGGCGGAGTCACCTAGTGCAG | 3260 fluorescence intensity (a.u.)
GAGCCGTGCGGCTCCGGCTCACTGGCTCCACACGTGGCGACGGAGTCACCTAGTGCAG | 9770 fluorescence intensity (a.u.)
CTTTGCTTTGCGATTCGCGCTCTGACGTGCGCGGGATCGGCGGAGTCACCTAGTGCAG | 6150 fluorescence intensity (a.u.)
TAACTGGCGTGTCAGTATTATCTTGCCACGTTACCCTAGCCGGAGTCACCTAGTGCAG | 6380 fluorescence intensity (a.u.)
AATTACACCGAAGGTCCCTCAACTTGTCATCGGGATAAAACGGAGTCACCTAGTGCAG | 31200 fluorescence intensity (a.u.)

Two entries from above, with tabs:
Sequence	binding signal
TCGACCGATACTTCGCCGTCGTCGCCGTATATGTCATGTCCGGAGTCACCTAGTGCAG	3660 fluorescence intensity (a.u.)
AAGGCTATGGTACTTGGGCCAAAACGTGTACAGATGCTCTCGGAGTCACCTAGTGCAG	3780 fluorescence intensity (a.u.)

Additional entries.

Sequence | binding signal
TCCCCACATCACCCAACACGAGCTCACCACCACCACCACCCGGAGTCACCTAGTGCAG | 3500 fluorescence intensity (a.u.)
GTGTTTCTGACATGCTATGAAATGACTCCTGGTCGACATGCGGAGTCACCTAGTGCAG | 3500 fluorescence intensity (a.u.)
TCTCCTCCGCCGTCGCGCCACGTCCCGCACAGCGCTCCTCCGGAGTCACCTAGTGCAG | 8160 fluorescence intensity (a.u.)
AGCAGTGGCAAACTTCTCAGTCATGTCCATGTCATCAGGCCGGAGTCACCTAGTGCAG | 13900 fluorescence intensity (a.u.)
CCACGGGTTCTTCCTCGATGCCTTCTCCGGCGCCGTCCGGCGGAGTCACCTAGTGCAG | 45300 fluorescence intensity (a.u.)
CGTGGTTGCTACAGCGCTACACGTTCGCGTTTTGCACGCGCGGAGTCACCTAGTGCAG | 3180 fluorescence intensity (a.u.)
CTGGTTGCGGCTGCGCTTTTCGGCACTGTCGGTGTCAGCTCGGAGTCACCTAGTGCAG | 3600 fluorescence intensity (a.u.)
ATTTCCCCGAGGTCCACGAAGCGATCCACGTAGTACTACTCGGAGTCACCTAGTGCAG | 5120 fluorescence intensity (a.u.)
ACAATATCATGGGCTTATCACTAAAACACACCTTTTAGAACGGAGTCACCTAGTGCAG | 22600 fluorescence intensity (a.u.)
TATGTACACTGCGTGCTACGAGCCAATGACGTGTAGCCTACGGAGTCACCTAGTGCAG | 13700 fluorescence intensity (a.u.)
TTGTTCCTCCTGTTGTCGCTCTGGAGAGTGGAGAGCTCTTCGGAGTCACCTAGTGCAG | 24400 fluorescence intensity (a.u.)
GCCGACCAGCTCTGGATGCTGCGCGACGCGTGGCCACGACCGGAGTCACCTAGTGCAG | 4010 fluorescence intensity (a.u.)
TAGGGCTATGAAAATGGCCATGTGAGTCATGACACTCTGACGGAGTCACCTAGTGCAG | 8980 fluorescence intensity (a.u.)
CAGCTGCGTAGCCATCACCGCCTGCGTCGCAGAGAGGGCCCGGAGTCACCTAGTGCAG | 3200 fluorescence intensity (a.u.)
CGACGATGATGATGATGATGACGATGACGAAGAAGATGGCCGGAGTCACCTAGTGCAG | 3340 fluorescence intensity (a.u.)
CTCCTGCGCGGCCACGTCTCACCTACCACCACCTTACCCTCGGAGTCACCTAGTGCAG | 4120 fluorescence intensity (a.u.)
AACTTCTGCTGTCTCTGTTAGGATTATGACGTTGCTAATTCGGAGTCACCTAGTGCAG | 3900 fluorescence intensity (a.u.)
AACACAGTCGCCGCACACATGACACGCACGAACGCCTCTCCGGAGTCACCTAGTGCAG | 4940 fluorescence intensity (a.u.)
CGTTTCAAATTTCATCCTTCCCCGTAAAGAATTCGTATTCCGGAGTCACCTAGTGCAG | 20600 fluorescence intensity (a.u.)
TAGTAACCAACAACACACGTGTGTTCCAGAGGCTTCAACCCGGAGTCACCTAGTGCAG | 4520 fluorescence intensity (a.u.)
TAATCATCCAAATGCAAGCTGACGAACCTGCTATTCCCAGCGGAGTCACCTAGTGCAG | 3340 fluorescence intensity (a.u.)

Taken from above.
Value for GTGTTTCTGACATGCTATGAAATGACTCCTGGTCGACATGCGGAGTCACCTAGTGCAG under binding signal: 3500 fluorescence intensity (a.u.)
Value for GAGCCGTGCGGCTCCGGCTCACTGGCTCCACACGTGGCGACGGAGTCACCTAGTGCAG under binding signal: 9770 fluorescence intensity (a.u.)
